{"source": "PubChem BioAssay AID504444", "about": "(National Center for Advancing Translational Sciences (NCATS), 2011)", "note": "The campaign covered roughly 360,000 compounds. About 7,500 (2.1%) were called active. The shares of active, inactive and inconclusive entries below differ from those in the screen. Calls come from the whole dose curve; as a rule, active = well fitted inhibition curve with a large enough effect; inconclusive = small, poorly fitted or top-dose-only effect, or effect the other way; inactive = flat fitted curve, though single readings scatter. Where the call is inconclusive, the potency comes from a doubtful curve fit. Potency is the fitted concentration of half-maximal effect.", "data": [{"test": "Nrf2 qHTS screen for inhibitors; note: nearly all actives have a fitted effect of over 60% in size", "conditions": "A549 ARE-Fluc reporter, luciferase luminescence, 18-24 h; series mostly up to 46 µM", "summary_of_the_method": "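Nrf2 activity is the BugLite luminescence, read 15 min after reagent at room temperature, following CellTiter-Fluor cytotoxicity readout (30 min, 37C). Compound titrations were applied for 18-24 h to 5000 A549 ARE_Fluc cells/well in 5% FBS OPTI-MEM.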", "values": [{"smiles": "N#C/C(=C/c1ccc(F)cc1)c1nc(CCN2C(=O)c3ccccc3C2=O)cs1", "Potency": "inconclusive: 0.58 µM [falling, partial curve, poor fit]"}, {"smiles": "Cc1cccc2c(=O)c(C(=O)NCc3cccs3)c[nH]c12", "Potency": "inconclusive: 8.2 µM [activator, partial curve, poor fit]"}, {"smiles": "CN(C)S(=O)(=O)c1cccc(NC(=O)CCc2nc3sc4c(c3c(=O)[nH]2)CCCC4)c1", "Potency": "active: 16.4 µM"}, {"smiles": "CC(=O)N1c2ccccc2C(=O)C1N1CCN(c2ccccc2)CC1", "note": "(stereo unspecified)", "Potency": "inconclusive: 29.1 µM [activator, single point]"}, {"smiles": "CCOC(=O)c1cnc(SCC(=O)Nc2ccccc2C(=O)OC)nc1N", "Potency": "inconclusive: 14.6 µM [falling, partial curve, poor fit]"}, {"smiles": "Cc1cc2oc(C(=O)Nc3ccc(S(=O)(=O)Nc4ncccn4)cc3)cc(=O)c2cc1Cl", "Potency": "inconclusive: 29.1 µM [falling, single point]"}, {"smiles": "CCC(C(=O)NC1CC1)n1nc(C)c2c(C)n(-c3ccc(C)cc3)nc2c1=O", "note": "(stereo unspecified)", "Potency": "active: 16.4 µM"}, {"smiles": "Cc1nc(SCC(=O)c2cc3ccccc3oc2=O)c(C#N)c(-c2ccccc2)c1C(=O)Nc1ccccc1", "Potency": "active: 23.1 µM"}, {"smiles": "Cc1cc(C)c(NC(=O)c2cc3c(=O)n4ccccc4nc3n2C)c(C)c1", "Potency": "inactive"}, {"smiles": "CC(C)CNc1nnnc2c1sc1nc(N3CCOCC3)c3c(c12)CC(C)(C)SC3", "Potency": "active: 13 µM"}, {"smiles": "CCOc1ccc(NC(=O)C2CCCN(S(=O)(=O)c3cccc4nsnc34)C2)cc1", "note": "(stereo unspecified)", "Potency": "inconclusive: 23.1 µM [falling, single point]"}, {"smiles": "Cc1cc(-c2nc3ncccc3o2)ccc1NC(=O)c1ccc(Br)cc1", "Potency": "inactive"}, {"smiles": "CCCCn1c(N)c(N(CCOC)C(=O)c2ccc(-c3ccc(C(C)=O)cc3)o2)c(=O)[nH]c1=O", "Potency": "inconclusive: 8.2 µM [activator, partial curve]"}, {"smiles": "Cc1ccc(-n2nnnc2SCC(=O)NCC2(N3CCOCC3)CCCCC2)cc1", "Potency": "inconclusive: 3.26 µM [activator, partial curve, poor fit]"}, {"smiles": "O=C(COc1ncnc2ccccc12)Nc1ccccc1[N+](=O)[O-]", "Potency": "inconclusive: 4.61 µM [falling, full curve, poor fit]"}, {"smiles": "COc1ccc(NC(=O)c2ccc(-c3csc(C)n3)cc2)cc1", "Potency": "active: 20.6 µM"}, {"smiles": "Cc1cc(Cl)ccc1OCc1nc(-c2ccncc2)no1", "Potency": "inconclusive: 8.2 µM [activator, partial curve, poor fit]"}, {"smiles": "COc1cc(C(=O)N2CCN(c3ccccc3)CC2)c2ccccc2n1", "Potency": "inconclusive: 9.2 µM [activator, partial curve]"}, {"smiles": "CSc1ccc(C(=O)C2CCCN(C(=O)c3ccc4c(c3)no[n+]4[O-])C2)cc1", "note": "(stereo unspecified)", "Potency": "inconclusive: 29.1 µM [falling, single point]"}, {"smiles": "CC(=O)Nc1cccc(OC2=NS(=O)(=O)c3ccccc32)c1", "Potency": "inconclusive: 25.9 µM [activator, single point]"}, {"smiles": "Cc1ccc(S(=O)(=O)N2CCN(C(=O)c3ccc(N4CCCCC4)c([N+](=O)[O-])c3)CC2)cc1", "Potency": "inconclusive: 4.61 µM [falling, partial curve]"}, {"smiles": "COc1ccc(N2CCN(C3=NS(=O)(=O)C(c4cccc(Br)c4)=C3C)CC2)cc1", "Potency": "inactive"}, {"smiles": "Cc1cccc(NS(=O)(=O)c2cccs2)n1", "Potency": "inactive"}, {"smiles": "CCC(C)NS(=O)(=O)c1ccc(S(=O)(=O)N2CCCC3(CCCCC3)C2)cc1", "note": "(stereo unspecified)", "Potency": "active: 20.6 µM"}, {"smiles": "Cc1cccc(OCc2nc(-c3cccnc3)no2)c1", "Potency": "inconclusive: 6.51 µM [activator, partial curve]"}, {"smiles": "Cc1ccc(N(C)C(=O)c2cc(S(=O)(=O)N3CCCCC3)c[nH]2)cc1", "Potency": "inactive"}, {"smiles": "Cc1cc(C)c2c(ccc3ccccc32)n1", "Potency": "inactive"}, {"smiles": "CC1CCCN(C(=O)CCS(=O)(=O)c2ccc3c(c2)n(C)c(=O)c(=O)n3C)C1", "note": "(stereo unspecified)", "Potency": "inconclusive: 0.082 µM [falling, full curve, poor fit]"}, {"smiles": "Cc1cccc(C)c1NC(=O)C1CCCN1S(=O)(=O)c1ccc(-c2ccc(=O)[nH]n2)s1", "note": "(stereo unspecified)", "Potency": "inconclusive: 4.11 µM [activator, full curve]"}, {"smiles": "CCCCN(C(=O)CSCC(=O)Nc1ccc(C)cc1)c1c(N)n(CC(C)C)c(=O)[nH]c1=O", "Potency": "inconclusive: 18.4 µM [falling, partial curve, poor fit]"}, {"smiles": "O=C1C2C3C=CC(O3)C2C(=O)N1N=C1CCCCC1", "note": "(stereo unspecified)", "Potency": "inconclusive: 4.61 µM [activator, partial curve, poor fit]"}, {"smiles": "COc1ccc2[nH]c(C(=O)Nc3ccc(C)c(F)c3)cc2c1", "Potency": "inconclusive: 16.4 µM [activator, partial curve]"}, {"smiles": "O=C(CSc1nnc(-c2ccccc2Cl)o1)N1CCOCC1", "Potency": "inconclusive: 18.4 µM [activator, partial curve]"}, {"smiles": "O=S(=O)(Cc1ccccc1)N1CCN(c2nc(-c3cccs3)nc3ccccc23)CC1", "Potency": "inconclusive: 14.6 µM [falling, single point]"}, {"smiles": "COc1cccc(N(C(=O)Cn2nnc(-c3ccc(C)cc3)n2)C(C(=O)NC(C)(C)C)c2c[nH]c3ccccc23)c1", "note": "(stereo unspecified)", "Potency": "inconclusive: 16.4 µM [falling, single point]"}, {"smiles": "Cc1ccc(C)c(Nc2ccc(C(=O)NCCc3ccccc3)cn2)c1", "Potency": "inconclusive: 18.4 µM [falling, partial curve]"}, {"smiles": "COC(=O)c1scc(-c2ccccc2)c1S(=O)(=O)Nc1cccc(C)c1C", "Potency": "inconclusive: 29.1 µM [falling, single point]"}, {"smiles": "CCCCOc1ccc(C(=O)N(Cc2ccc(C(C)C)cc2)C2CCS(=O)(=O)C2)cc1", "note": "(stereo unspecified)", "Potency": "inconclusive: 29.1 µM [falling, partial curve, poor fit]"}, {"smiles": "O=C(CN1C(=O)C2C3C=CC(C4CC34)C2C1=O)Nc1cnc2ccccc2c1", "note": "(stereo unspecified)", "Potency": "inconclusive: 29.1 µM [activator, single point]"}, {"smiles": "CCOC(=O)c1ccc(NC(=O)CC2SCCNC2=O)cc1", "note": "(stereo unspecified)", "Potency": "inconclusive: 0.164 µM [activator, full curve, poor fit]"}, {"smiles": "CC1(C(=O)Nc2ccc3c(c2)OCO3)CC1(Cl)Cl", "note": "(stereo unspecified)", "Potency": "inconclusive: 16.4 µM [activator, partial curve, poor fit]"}]}]}
